Two substances from PMC5578684 can be followed below.

Protein sequences, listed by entry. Tags and fused reporters are not part of them.
UniProt Q9JKD9: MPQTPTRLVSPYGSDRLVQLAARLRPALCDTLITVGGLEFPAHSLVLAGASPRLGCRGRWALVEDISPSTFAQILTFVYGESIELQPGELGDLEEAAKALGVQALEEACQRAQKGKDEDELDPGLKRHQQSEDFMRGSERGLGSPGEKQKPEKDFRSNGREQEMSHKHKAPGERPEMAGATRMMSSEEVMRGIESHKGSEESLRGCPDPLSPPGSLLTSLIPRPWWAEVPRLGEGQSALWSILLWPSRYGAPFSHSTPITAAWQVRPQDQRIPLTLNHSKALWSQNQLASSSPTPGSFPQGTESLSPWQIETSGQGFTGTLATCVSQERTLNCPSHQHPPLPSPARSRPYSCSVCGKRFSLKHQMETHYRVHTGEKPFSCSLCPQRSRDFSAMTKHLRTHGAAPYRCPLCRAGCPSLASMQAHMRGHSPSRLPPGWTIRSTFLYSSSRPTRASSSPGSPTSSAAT
UniProt Q60636: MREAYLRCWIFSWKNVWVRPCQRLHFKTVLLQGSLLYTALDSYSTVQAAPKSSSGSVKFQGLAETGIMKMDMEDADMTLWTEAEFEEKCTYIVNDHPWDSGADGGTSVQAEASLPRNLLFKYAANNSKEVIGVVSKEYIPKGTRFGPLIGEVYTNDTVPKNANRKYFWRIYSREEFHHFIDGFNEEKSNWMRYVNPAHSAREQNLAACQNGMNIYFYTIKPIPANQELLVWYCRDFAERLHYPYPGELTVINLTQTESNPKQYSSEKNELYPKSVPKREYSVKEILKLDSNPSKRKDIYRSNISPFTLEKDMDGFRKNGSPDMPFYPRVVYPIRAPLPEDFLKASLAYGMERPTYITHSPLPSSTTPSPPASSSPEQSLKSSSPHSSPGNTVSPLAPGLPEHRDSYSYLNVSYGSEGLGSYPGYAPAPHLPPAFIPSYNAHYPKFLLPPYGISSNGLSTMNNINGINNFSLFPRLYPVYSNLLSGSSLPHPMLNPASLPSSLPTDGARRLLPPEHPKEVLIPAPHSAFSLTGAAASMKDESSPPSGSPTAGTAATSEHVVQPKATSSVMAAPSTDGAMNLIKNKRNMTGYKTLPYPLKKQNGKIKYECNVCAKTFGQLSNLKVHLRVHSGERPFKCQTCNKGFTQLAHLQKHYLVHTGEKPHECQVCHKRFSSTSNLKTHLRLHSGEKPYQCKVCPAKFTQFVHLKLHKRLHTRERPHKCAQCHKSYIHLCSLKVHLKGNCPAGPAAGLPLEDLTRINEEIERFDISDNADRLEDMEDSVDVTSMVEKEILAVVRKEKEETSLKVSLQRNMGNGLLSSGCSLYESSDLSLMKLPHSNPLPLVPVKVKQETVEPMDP
UniProt P70288: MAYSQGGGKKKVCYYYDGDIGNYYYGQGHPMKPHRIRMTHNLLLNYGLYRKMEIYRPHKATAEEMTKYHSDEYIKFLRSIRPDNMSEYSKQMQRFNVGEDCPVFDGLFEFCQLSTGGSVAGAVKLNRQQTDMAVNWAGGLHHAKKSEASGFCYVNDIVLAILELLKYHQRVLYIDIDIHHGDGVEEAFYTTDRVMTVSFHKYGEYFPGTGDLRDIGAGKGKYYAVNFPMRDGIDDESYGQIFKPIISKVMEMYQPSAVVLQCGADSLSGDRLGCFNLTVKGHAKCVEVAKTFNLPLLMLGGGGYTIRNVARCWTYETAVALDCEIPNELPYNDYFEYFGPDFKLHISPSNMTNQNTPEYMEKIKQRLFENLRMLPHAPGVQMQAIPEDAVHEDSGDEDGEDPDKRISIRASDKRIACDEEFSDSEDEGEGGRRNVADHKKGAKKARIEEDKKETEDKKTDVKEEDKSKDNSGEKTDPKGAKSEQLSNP

In assay [1] the target is ZBTB32 (mouse (endogenous in CD8+ T cells)) (UniProt Q9JKD9). Kind of assay: co-IP; WT mouse CD8+ T cells stimulated with αCD3/CD28 for 2 days with or without IL-2, IL-4 and IL-12; immunoprecipitation with αZBTB32 or an IgG control antibody, immunoblotting with αBlimp-1.
Assay [2] shares this target. Kind of assay: proximity ligation; Duolink II proximity ligation assay on fixed, permeabilised WT mouse CD8+ T cells stimulated with αCD3 and αCD28 for 2 days with or without IL-2, IL-4 and IL-12; antibody pairs αBlimp-1 + αZBTB32 or αBlimp-1 + αHDAC2; mouse IgG + rabbit IgG as control; confocal microscopy.
Assay [3] has as its target Blimp-1 (mouse (endogenous in CD8+ T cells)) (UniProt Q60636). Described as above.

Results are given in words; binding and its absence hold for the method and conditions named. Binding seen in cells or lysates may run through a third protein. Some binding calls cover weakened binding; strength is not graded here.

Blimp-1 (from UniProt Q60636 1-856): the binding result in assay [1] and in assay [2] was “binds” in each case.
Regarding HDAC2 (from UniProt P70288 1-488), the binding entry in assay [3] is listed as “binds”.
